Reference: PubChem BioAssay AID686938 (Drosophila RNAi Screening Center, 2013)

Aim: 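Knock-downs reducing store-operated calcium influx in Drosophila cells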 (primary screen)
Cells: Drosophila S2R+ cells
Reagents: long dsRNA against Drosophila genes, about 0.25 µg dsRNA per well, roughly 10,000 cells
Time to read-out: 5 days of knock-down before the calcium assay
Challenge: thapsigargin (SERCA pump blocker) to empty calcium stores; entry signal taken 4 min after adding it
Measurement: 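Duplicate raw fluo-4 intensities per well from a plate reader, at rest and four minutes after thapsigargin emptied calcium stores; entry-to-rest ratio filled for only some wells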
Reading the numbers: calcium entry signal: higher = stronger calcium signal after store depletion; entry to resting ratio: higher = more calcium entry relative to resting level; resting calcium signal: higher = higher resting calcium signal
Call rule: 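Called when the plate z-score of the entry-to-rest ratio, mean of duplicates, falls below −3; wells with low overall dye signal (Fmax z below −2) or more than five off-targets excluded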
Calls: active = strongly reduced calcium entry; inactive = no strong reduction
In all, the deposit lists about 23,000 reagents; below is a random part of those with a known target gene and a result. Over the whole deposit, 75 (0.33%) got an active call. 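Raw plate signals without normalisation; calls rest on plate z-scores that were not deposited; ratio present for only 364 wells.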 The numbers tell different reagents against one gene apart. Names joined by + are all predicted targets of the reagent. Not given: the dose of the treatment.

gene	dsRNA no.	calcium entry signal, replicate 1 (fluorescence units)	calcium entry signal, replicate 2 (fluorescence units)	entry to resting ratio	resting calcium signal, replicate 1 (fluorescence units)	resting calcium signal, replicate 2 (fluorescence units)	activity call
CG34337	1	3.27e7	3.59e7		1.63e7	1.77e7	inactive
hlk (hulk)	1	3.56e7	4.99e7		1.92e7	2.23e7	inactive
hlk (hulk)	2	3.71e7	5.18e7		2.03e7	2.45e7	inactive
CG42233	1	4.72e7	4.56e7	2.1	2.28e7	1.94e7	inactive
CG42233	2	4.23e7	5.27e7	2.1	2.02e7	2.16e7	inactive
Archease	1	3.61e7	5.15e7		5.16e7	2.31e7	inactive
MED23 + CG3700	1	3.88e7	4.53e7		2.00e7	2.19e7	inactive
MED23 + CG3700	2	3.91e7			1.86e7		inactive
Hn (Henna)	1	5.58e7	4.47e7		3.65e7	1.85e7	inactive
CG10222	1	3.61e7	3.60e7		1.86e7	1.60e7	inactive
MsrA (Methionine sulfoxide reductase A)	1	3.32e7	5.17e7		1.82e7	1.84e7	inactive
fig (fos intronic gene)	1	4.80e7	5.98e7		2.28e7	2.28e7	inactive
CG4872	1	3.69e7	3.82e7		1.78e7	1.65e7	inactive
CG1602	1	3.90e7	3.82e7		1.82e7	1.66e7	inactive
CG6465	1	3.66e7	5.21e7		1.63e7	2.08e7	inactive
CG10445	1	5.55e7	3.46e7		2.36e7	1.51e7	inactive
CG8187	1	2.67e7	2.81e7		1.22e7	1.37e7	inactive
CG10435	1	2.78e7	3.55e7		1.22e7	1.50e7	inactive
Sodh2 (Sorbitol dehydrogenase 2)	1	3.60e7	4.43e7		1.74e7	2.08e7	inactive
SA2 (Stromalin 2)	1	3.19e7	4.01e7		1.44e7	1.62e7	inactive
Arc1 (Activity-regulated cytoskeleton associated protein 1)	1	3.26e7	7.06e7		1.43e7	3.06e7	inactive
Klp59C (Kinesin-like protein at 59C)	1	3.92e7	4.18e7		2.08e7	1.97e7	inactive
Phf5a (PHD finger protein 5a)	1	1.49e7	1.67e7		9.71e6	1.03e7	active
CG3609	1	3.67e7	3.63e7		1.67e7	1.64e7	inactive
CG31882	1	1.68e7	3.64e7		1.37e7	1.61e7	inactive
CG30271	1	3.60e7	4.87e7		1.88e7	2.24e7	inactive
CG5506	1	3.61e7	4.90e7		1.74e7	1.85e7	inactive
Zfrp8 (Zinc finger protein RP-8)	1	3.20e7	3.28e7		1.65e7	1.70e7	inactive
CG14454	1	2.04e7	3.64e7		1.08e7	1.57e7	inactive
Tsp42Ei (Tetraspanin 42Ei)	1	3.62e7	4.28e7		1.73e7	1.94e7	inactive
CG4250	1	3.87e7	3.56e7		1.91e7	1.66e7	inactive
CG18675	1	3.92e7	4.36e7		1.94e7	1.98e7	inactive
pic (piccolo)	1	2.51e7	3.63e7		1.15e7	1.71e7	inactive
nesd (nessun dorma)	1	4.47e7			2.19e7		inactive
CG8960	1	4.11e7	3.97e7		2.09e7	1.99e7	inactive
CG12576	1	4.33e7	5.00e7		1.93e7	1.92e7	inactive
cup	1	3.72e7			2.31e7		inactive
CG13502	1	4.52e7	5.55e7		2.26e7	2.43e7	inactive
Hmg-2 (High mobility group protein 2)	1	4.18e7			2.22e7		inactive
CG12081	1	2.93e7	3.47e7		1.46e7	1.53e7	inactive

In a second layout: 2 of the entries above
| gene | dsRNA no. | calcium entry signal, replicate 1 (fluorescence units) | calcium entry signal, replicate 2 (fluorescence units) | entry to resting ratio | resting calcium signal, replicate 1 (fluorescence units) | resting calcium signal, replicate 2 (fluorescence units) | activity call |
| --- | --- | --- | --- | --- | --- | --- | --- |
| Zfrp8 (Zinc finger protein RP-8) | 1 | 3.20e7 | 3.28e7 | – | 1.65e7 | 1.70e7 | inactive |
| CG14454 | 1 | 2.04e7 | 3.64e7 | – | 1.08e7 | 1.57e7 | inactive |
